Assay results published in article PMC10925992 (Heliyon, 2024).
Where a name gives a salt, the structure may show the parent alone.

The chains behind the UniProt entries cited, without tags or fusion partners. Residues count along the entry.
UniProt Q93009, 208-560: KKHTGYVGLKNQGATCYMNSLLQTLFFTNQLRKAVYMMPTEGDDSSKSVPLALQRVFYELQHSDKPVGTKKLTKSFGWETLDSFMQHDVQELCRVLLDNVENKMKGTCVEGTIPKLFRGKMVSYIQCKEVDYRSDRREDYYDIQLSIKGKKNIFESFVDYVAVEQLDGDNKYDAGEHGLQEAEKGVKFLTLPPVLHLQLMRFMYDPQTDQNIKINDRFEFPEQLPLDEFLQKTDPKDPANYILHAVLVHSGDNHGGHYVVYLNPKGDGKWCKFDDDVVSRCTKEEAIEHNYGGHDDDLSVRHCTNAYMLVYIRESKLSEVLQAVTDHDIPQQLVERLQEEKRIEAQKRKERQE

Experiments:
USP7-CD = USP7-CD (Homo sapiens, UniProt Q93009); test: Thermal shift assay; settings: decrease of Tm of USP7-CD; USP7 10 μM, ligand 1 mM
[1] = biological target: catalytic domain of USP7 (USP7-CD) (Homo sapiens, UniProt Q93009); test: STD-NMR titration for dissociation constant; assay type: binding
HCT116 cells = test: MTT anti-proliferation assay; assay type: cell-based; settings: Homo sapiens, HCT-116, 48 h

| Thermal Shift (Δtm) (USP7-CD) [°C] | Kd [1] [µM] | IC50 (HCT116 cells) [µM] | Structure (SMILES) |
| --- | --- | --- | --- |
| 2.30 | 1100 ± 800 | – | Cc1ccccc1C(OCCN(C)C)c1ccccc1 (stereo not drawn) [Compound 5, Orphenadrine] |
| – | – | 36.2 ± 1.03 | CCN(CC)CC#CCOC(=O)C(O)(c1ccccc1)C1CCCCC1 (stereo not drawn) [Compound 6, Oxybutynin HCl] |
